# Measured values from the supplement of paper PMC9135407.
# “And” between values parts separate entries of the source, which are not always exact repeats. Equal entries are not always repeated. Structures can show the parent of a compound that is named as a salt. ± gives the standard deviation of the averaged measurements. This is one part of the list. Plates or batches differ in their baseline, so values are only roughly comparable.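 Culture-activated primary human stellate myofibroblasts, where regained lipid droplets signal inactivation. Value: share of Hoechst-counted cells above a per-plate Bodipy cutoff, in duplicate wells, with DMSO negative and nortriptyline positive controls on each plate. Hits: a control-normalized score above the plate's top-tenth-percentile nortriptyline wells, or one of a plate's three best wells. Final well concentrations are not given.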
# System: primary human hepatic stellate cells (donor 1)
# Test: percent Bodipy-positive cells; higher = more lipid droplet accumulation
# Details: 48 h
# [1] = library stock concentration: 10 mM
# [2] = library stock concentration: 3.33 mM
# [3] = library stock concentration: 1 mM
# [4] = library stock concentration: 80 uM
# [5] = library stock concentration: 400 uM
# [6] = library stock concentration: 2 mM
smiles,measurement,setting,value
COC1CCC(C(=O)c2ccc3nc4c(cc3c2)CCCO4)CC1 (centres undefined),percent Bodipy-positive cells,[1],6.44 ± 3.4%
O=C(O)[C@@H]1[C@H]2C[C@H]3c4[nH]c5ccccc5c4CCN3C[C@@H]2CC[C@@H]1O [Yohimbinic acid monohydrate],percent Bodipy-positive cells,,25.7 ± 6.6%
NC(=O)N/N=C/c1ccc(Oc2ccc(F)cc2)cc1,percent Bodipy-positive cells,[1],6.35 ± 0.39%
C[C@]12CC[C@@H]3c4ccc(O)cc4C[C@@H](CCCCCCCCC[S+]([O-])CCCC(F)(F)C(F)(F)F)[C@H]3[C@@H]1CC[C@@H]2O (some centres undefined) [Fulvestrant],percent Bodipy-positive cells,[2],9.02 ± 1.1%
C[C@]12CC[C@@H]3c4ccc(O)cc4C[C@@H](CCCCCCCCC[S+]([O-])CCCC(F)(F)C(F)(F)F)[C@H]3[C@@H]1CC[C@@H]2O (some centres undefined),percent Bodipy-positive cells,[1],9.65 ± 4.2%
COc1cc(CNC(=O)CCCC/C=C/C(C)C)ccc1O [E-capsaicin],percent Bodipy-positive cells,[1],14.3 ± 2.1%
COc1cc(CNC(=O)CCCC/C=C/C(C)C)ccc1O [Capsaicin],percent Bodipy-positive cells,,6.98 ± 3.3%
same,percent Bodipy-positive cells,[3],9.54 ± 1.2%
same,percent Bodipy-positive cells,[1],13.4 ± 0.65%
COc1cc(CNC(=O)CCCC/C=C/C(C)C)ccc1O [E-Capsaicin],percent Bodipy-positive cells,library stock concentration: 16.4 mM,22.2 ± 2%
COc1cc(CNC(=O)CCCC/C=C/C(C)C)ccc1O [(E)-Capsaicin],percent Bodipy-positive cells,[1],6.98 ± 2.8%
Clc1ccc(C2(c3ccc(-c4cn[nH]c4)cc3)CCNCC2)cc1,percent Bodipy-positive cells,[4],44 ± 1.6%
same,percent Bodipy-positive cells,[5],64.7 ± 4.1%
same,percent Bodipy-positive cells,[1],98.3 ± 2.4%
NC1(Cc2ccc(Cl)cc2)CCN(c2ncnc3[nH]ccc23)CC1,percent Bodipy-positive cells,[2],60.5 ± 16%
"O=C(O)CCC(C(=O)O)N1C(=O)c2ccccc2C1=O [L-Glutamic acid, N-phthaloyl-]",percent Bodipy-positive cells,[1],53.1 ± 2.8%
Cc1cc(C(C)Nc2ccccc2)c2nc(N3CCOCC3)cc(=O)n2c1 (centres undefined),percent Bodipy-positive cells,[4],11.3 ± 4.4%
same,percent Bodipy-positive cells,[5],11.6% and 10.4%
same,percent Bodipy-positive cells,[6],19% and 18.1%
same,percent Bodipy-positive cells,[2],7.7 ± 2.4%
"Cc1cc(Nc2cc(N3CCN(C)CC3)nc(Sc3ccc(NC(=O)C4CC4)cc3)n2)n[nH]1 [Tozasertib (VX-680, MK-0457) (10 mM)]",percent Bodipy-positive cells,[1],71.6 ± 6.8%
"Cc1cc(Nc2cc(N3CCN(C)CC3)nc(Sc3ccc(NC(=O)C4CC4)cc3)n2)n[nH]1 [VX-680 (Tozasertib, MK-0457)]",percent Bodipy-positive cells,[2],31.9 ± 0.98%
same,percent Bodipy-positive cells,[1],59.5 ± 8.2%
"Cc1cc(Nc2cc(N3CCN(C)CC3)nc(Sc3ccc(NC(=O)C4CC4)cc3)n2)n[nH]1 [Tozasertib (VX-680, MK-0457) (0.4 mM)]",percent Bodipy-positive cells,[5],16.5 ± 0.17%
Cc1cc(Nc2cc(N3CCN(C)CC3)nc(Sc3ccc(NC(=O)C4CC4)cc3)n2)n[nH]1,percent Bodipy-positive cells,[4],9.86 ± 0.4%
same,percent Bodipy-positive cells,[5],16.8 ± 2%
same,percent Bodipy-positive cells,[6],35.5 ± 4.1%
same,percent Bodipy-positive cells,[1],58.9 ± 2.7%
"Cc1cc(Nc2cc(N3CCN(C)CC3)nc(Sc3ccc(NC(=O)C4CC4)cc3)n2)n[nH]1 [Tozasertib (VX-680, MK-0457) (2 mM)]",percent Bodipy-positive cells,[6],40.8 ± 2.1%
Clc1ccc2nsnc2c1NC1=NCCN1 [Tizanidine hydrochloride],percent Bodipy-positive cells,[1],18.8% and 10.4% and 24.3%
Clc1ccc2nsnc2c1NC1=NCCN1 [Tizanidine HCl],percent Bodipy-positive cells,[2],7.29 ± 6.9%
same,percent Bodipy-positive cells,library stock concentration: 7.9 mM,5.4 ± 0.33%
same,percent Bodipy-positive cells,[1],36.2 ± 2.8%
Cc1cc2cc3c(C)cc(=O)oc3c(C)c2o1 [Trioxsalen],percent Bodipy-positive cells,,8.61 ± 1.7%
same,percent Bodipy-positive cells,library stock concentration: 8.8 mM,20.2 ± 6.2%
same,percent Bodipy-positive cells,[1],37.9 ± 16%
CC(=O)Nc1c(I)cc(I)c(C(=O)O)c1I [Acetriazoic acid],percent Bodipy-positive cells,library stock concentration: 3.6 mM,11.5 ± 0.33%
same,percent Bodipy-positive cells,[1],32.5 ± 9.9%
CC(C)OC(=O)CCC/C=C/C[C@H]1C(=O)C[C@@H](O)[C@@H]1/C=C/[C@@H](O)COc1cccc(C(F)(F)F)c1 [9-keto Fluprostenol isopropyl ester],percent Bodipy-positive cells,[3],17.7 ± 3.1%
CC(=O)Nc1nnc(S(N)(=O)=O)s1,percent Bodipy-positive cells,[1],31 ± 0.98%
CC(=O)Nc1nnc(S(N)(=O)=O)s1 [Acetazolamide],percent Bodipy-positive cells,,28.6 ± 5.8%
same,percent Bodipy-positive cells,library stock concentration: 9 mM,2.05 ± 0.11%
same,percent Bodipy-positive cells,[1],11.5% and 34.7%
Nc1nc(OCc2cc(Br)cs2)c2[nH]cnc2n1 [Lomeguatrib],percent Bodipy-positive cells,[2],39.5 ± 2.4%
same,percent Bodipy-positive cells,[1],50.89 ± 0.1%
CCCCOc1ccc(C(=O)Nc2ccc(F)cc2F)cc1,percent Bodipy-positive cells,[2],33.7 ± 9.4%
same,percent Bodipy-positive cells,[1],42.1 ± 8%
CC(C)Oc1ccc2c(=O)c(-c3ccccc3)coc2c1,percent Bodipy-positive cells,[1],36.71 ± 0.33%
CC(C)Oc1ccc2c(=O)c(-c3ccccc3)coc2c1 [Ipriflavone (Osteofix)],percent Bodipy-positive cells,[2],12.7 ± 1%
same,percent Bodipy-positive cells,[1],24.1 ± 2.5%
C[N+](C)(C)CC(O)CC(=O)[O-] (centres undefined) [Carnitine hydrochloride],percent Bodipy-positive cells,[1],20.2 ± 1.2%
NC(N)=N[C@@H](CCC(=O)O)C(=O)O [alpha-Guanidinoglutaric acid],percent Bodipy-positive cells,[1],31.1 ± 6.5%
NC(N)=N[C@@H](CCC(=O)O)C(=O)O [.alpha.-Guanidinoglutaric Acid],percent Bodipy-positive cells,[3],8.65 ± 2.4%
N#C/C(=C1/SC[C@@H](c2ccc(Cl)cc2Cl)S1)n1ccnc1 [Luliconazole],percent Bodipy-positive cells,[2],10.7 ± 1.3%
same,percent Bodipy-positive cells,[1],28.7 ± 15%
COc1cc(N2CCN(C)CC2)ccc1Nc1ncc2c(n1)N(C)c1ccccc1C(=O)N2C,percent Bodipy-positive cells,[4],22 ± 0.98%
same,percent Bodipy-positive cells,[5],22.4 ± 3.2%
same,percent Bodipy-positive cells,[6],37.4 ± 5%
same,percent Bodipy-positive cells,[1],72.7 ± 6.1%

# Looked up one by one from above:
smiles,measurement,setting,value
CC(=O)Nc1c(I)cc(I)c(C(=O)O)c1I [Acetriazoic acid],percent Bodipy-positive cells,[1],32.5 ± 9.9%
CC(C)Oc1ccc2c(=O)c(-c3ccccc3)coc2c1,percent Bodipy-positive cells,[1],36.71 ± 0.33%
CC(=O)Nc1nnc(S(N)(=O)=O)s1,percent Bodipy-positive cells,[1],31 ± 0.98%
Clc1ccc2nsnc2c1NC1=NCCN1 [Tizanidine HCl],percent Bodipy-positive cells,[1],36.2 ± 2.8%
